Measured values taken from patent US20080097096A1, “Processes for preparation of crystalline mycophenolate sodium” (priority 2004, published 2008).
At least one compound was matched to its structure with a doubt left.

What was measured:
[1] = Hygroscopicity: exposure to different levels of humidity for one week, then TGA and XRD for water content and crystal structure; assay type: physicochemical; conditions: for LOD(%): TGA; for Form (crystal form after exposure): XRD
[2] = Single particle size by polarizing light microscope; assay type: physicochemical; conditions: magnification 200

COc1c(C)c2c(c(O)c1C/C=C(\C)CCC(=O)O)C(=O)OC2 [M2 (example 3), mycophenolate sodium]
LOD(%) ([1]; 40 % RH): 0.1%
Form (crystal form after exposure) ([1]; 40 % RH): M2
LOD(%) ([1]; 60 % RH): 0.2%
Form (crystal form after exposure) ([1]; 60 % RH): M2
LOD(%) ([1]; 80 % RH): 0.4%
Form (crystal form after exposure) ([1]; 80 % RH): M2
single particle size [2]: less than 100 micrometers
